# Test results reported in PubChem BioAssay AID602313 (National Center for Advancing Translational Sciences (NCATS), 2012).
# Among all 390,000 compounds or so, about 760 (0.19%) were called active. Inconclusive results, whose numbers are uncertain, are shown with a selection of clear calls. The call rests on the fitted dose curve; in most records, active means well fitted inhibition curve with a large enough effect; inconclusive means small, poorly fitted or top-dose-only effect; inactive means flat fitted curve, though single readings scatter. A potency beside an inconclusive call is a rough fit, not a confirmed value.
# Assay: qHTS for Inhibitors of Vif-A3F Interactions: qHTS; further: nearly all actives have a fitted effect of over 65% in size
# Conditions: HeLa A3F-eYFP + Vif (tagged APOBEC3F with the HIV-1 protein that degrades it), YFP fluorescence increase; series mostly up to 46.1 µM
# How it was run: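 HeLa cells stably expressing A3F-eYFP plus Vif, plated and incubated overnight at 37 deg C, then exposed to compounds overnight at 37 deg C. Blocked degradation read as raised yellow fluorescence (Ex 488/Em 500-530).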
# Potency means the concentration at half of the fitted maximal effect.
row,Compound,Potency
1,COc1cccc(/C=N/Nc2nc3ccccc3[nH]2)c1O,"inconclusive: 3.55 µM [inhibitor, partial curve, poor fit]"
2,CN1C(=O)/C(=C\c2ccc(OC(=O)c3ccco3)cc2)SC1=S,inactive
3,Cc1c(C2=CCN(S(=O)(=O)c3ccc(Cl)cc3)CC2)c2ccccc2n1CC(=O)N1CCCC1,inactive
4,COc1ccccc1NC(=O)c1sc2nc(C)c(C(=O)Nc3ccc(Cl)cc3)c(-c3ccc(Br)cc3)c2c1N,"inconclusive: 35.5 µM [inhibitor, single point]"
5,Cc1ccc(C(=O)NNC(=O)c2ccc3ncccc3c2)cc1,"inconclusive: 6.31 µM [inhibitor, single point]"
6,O=C1COc2ccc(C(=O)COC(=O)c3ccco3)cc2N1,inactive
7,COCCNC(=S)N/N=C(\C)c1ccccc1F,"inconclusive: 35.5 µM [inhibitor, single point]"
8,CC(=O)Oc1ccc2occ(/C=N/c3cc(=O)[nH]c(=S)[nH]3)c(=O)c2c1,inactive
9,O=C(COC(=O)c1ccc2ccccc2n1)c1ccc(F)cc1,"inconclusive: 15.8 µM [inhibitor, partial curve, poor fit]"
10,O=C(NCc1ccc2c(c1)CCN2C(=O)c1ccc(F)cc1)c1ccc(Br)o1,"inconclusive: 22.4 µM [inhibitor, single point]"
11,Cc1cc(C)c(NC(=O)Cn2nc3c(cc2=O)CCCC3)c(C)c1,inactive
12,COc1ccc(S(=O)(=O)N2CCCCCC2)cc1C(=O)N(C)CC(=O)Nc1ccc(Cl)c(Cl)c1,inactive
13,COc1ccc(C(CNC(=O)c2ccc(S(=O)(=O)N3CC(C)CC(C)C3)cc2)N(C)C)cc1 (stereo not given),inactive
14,Cc1cc(NC(=O)N2CC=C(c3c[nH]c4ccccc34)CC2)ccc1Br,active: 22.4 µM
15,CCOC(=O)c1sc2ccccc2c1S(=O)(=O)Nc1c(C)cccc1C,inactive
16,COc1ccc(-c2noc(-c3ccc(NCc4ccc(C)cc4)c([N+](=O)[O-])c3)n2)cc1OC,inactive
17,COc1ccc(S(=O)(=O)N(CCc2ccccc2)CC(=O)N/N=C/c2ccc3c(c2)OCO3)cc1,"inconclusive: 35.5 µM [inhibitor, single point]"
18,CC1C(C#N)=C(N)OC2=C1C(=O)CC(c1ccccc1)C2 (stereo not given),"inconclusive: 35.5 µM [inhibitor, single point]"
19,CC(=O)c1cccc(NC(=O)CCc2nc3sc4c(c3c(=O)[nH]2)CCCC4)c1,"inconclusive: 35.5 µM [inhibitor, single point]"
20,Cc1cc(/C=C2/C(=N)N3C(=NC2=O)SN=C3S(C)(=O)=O)c(C)n1-c1ccc(F)cc1,"inconclusive: 2.82 µM [inhibitor, single point]"
21,Cc1cc(N/N=C/c2cccc([N+](=O)[O-])c2)nc(-n2nc(C)cc2C)n1,"inconclusive: 10 µM [inhibitor, partial curve, poor fit]"
22,O=C(Nc1nnc(SCc2c(Cl)cccc2Cl)s1)C1CC(=O)N(c2ccc3c(c2)OCCO3)C1 (stereo not given),"inconclusive: 35.5 µM [inhibitor, single point]"

# Arranged by count of non-hydrogen atoms (low to high): part of the list above
row,Compound,Potency
2,CN1C(=O)/C(=C\c2ccc(OC(=O)c3ccco3)cc2)SC1=S,inactive
21,Cc1cc(N/N=C/c2cccc([N+](=O)[O-])c2)nc(-n2nc(C)cc2C)n1,"inconclusive: 10 µM [inhibitor, partial curve, poor fit]"
10,O=C(NCc1ccc2c(c1)CCN2C(=O)c1ccc(F)cc1)c1ccc(Br)o1,"inconclusive: 22.4 µM [inhibitor, single point]"
3,Cc1c(C2=CCN(S(=O)(=O)c3ccc(Cl)cc3)CC2)c2ccccc2n1CC(=O)N1CCCC1,inactive

# Further structures.

row,Compound,Potency
1,O=C(OCC(=O)N1CCOCC1)c1ccccc1OCc1ccccc1Cl,"inconclusive: 35.5 µM [inhibitor, partial curve, poor fit]"
2,COc1cc(/C=C/C(=O)c2ccc(NS(=O)(=O)c3ccc(C)cc3)cc2)cc(OC)c1O,"inconclusive: 25.1 µM [inhibitor, single point]"
3,c1ccc(Nc2nc(NCc3ccco3)c3ccccc3n2)cc1,inactive
4,Oc1cccc(C(Nc2ccccn2)c2ccc3cccnc3c2O)c1Cl (stereo not given),"inconclusive: 28.2 µM [inhibitor, single point]"
5,O=C(Cc1coc2cc3c(cc12)CCC3)NC1CCCCCCC1,"inconclusive: 35.5 µM [inhibitor, single point]"
6,COc1cc(-c2cc(-c3ccc(N)cc3)[nH]c(=O)c2C#N)cc(OC)c1OC,"inconclusive: 22.4 µM [inhibitor, single point]"
7,C=CCNc1oc(-c2ccc(-c3ccccc3)cc2)nc1C#N,"inconclusive: 14.1 µM [inhibitor, single point]"
8,O=C(Nc1ccc2c(c1)OCCO2)C1CC(O)CN1C(=O)Nc1ccccc1 (stereo not given),"inconclusive: 12.6 µM [inhibitor, single point]"
9,Cc1nc(N)sc1-c1csc(Nc2ccc(S(N)(=O)=O)cc2)n1,inactive
10,COc1cccc(NC(=O)c2ccc(-c3ccccc3[N+](=O)[O-])o2)c1,"inconclusive: 35.5 µM [inhibitor, single point]"
11,S=c1[nH]nc(SCc2ccccc2)c2[nH]cnc12,"inconclusive: 35.5 µM [inhibitor, single point]"
12,COc1ccc(Cc2nnc(NC(=O)Nc3ccccc3OC)s2)cc1,"inconclusive: 31.6 µM [inhibitor, single point]"
13,O=C1SCCC1NC(=O)C(c1ccccc1)c1ccccc1 (stereo not given),"inconclusive: 35.5 µM [inhibitor, single point]"
14,O=C1COc2ccc(C(=O)COC(=O)CCSc3ccc(Cl)cc3)cc2N1,"inconclusive: 35.5 µM [inhibitor, single point]"
15,COc1cccc(Nc2ccc([N+](=O)[O-])c3nonc23)c1,"inconclusive: 22.4 µM [inhibitor, single point]"
16,CCOc1ccc(-n2cc(C(=O)NC(C)C)c3cc(OC)c(OC)cc3c2=O)cc1,inactive
17,CC1=NN(c2ccc(C(=O)O)cc2)C(=O)/C1=C\c1ccc(OC(=O)c2cccs2)cc1,"inconclusive: 35.5 µM [inhibitor, single point]"
18,O=C(NC1CCN(C(=O)NCc2ccccc2)CC1)c1ccc(F)cc1,"inconclusive: 35.5 µM [inhibitor, single point]"
19,CC12CCC(C(=O)NCc3ccccc3Cl)(C(Br)C1=O)C2(C)C (stereo not given),"inconclusive: 0.794 µM [inhibitor, full curve, poor fit]"
20,O=[N+]([O-])c1ccc2nc(-c3ccc(Cl)cc3)[nH]c2c1,inactive
21,C/C=C/c1ccc(OCC(=O)Nc2cc(OC)c(OC)c(OC)c2)c(OC)c1,"inconclusive: 6.31 µM [inhibitor, single point]"
22,CSc1ccccc1C(=O)Nc1cccc([N+](=O)[O-])c1,"inconclusive: 35.5 µM [inhibitor, single point]"

row,Compound,Potency
1,COc1ccc(Cc2nc(-c3ccccn3)no2)cc1OC,"inconclusive: 5.62 µM [inhibitor, single point]"
2,CCCCn1c(=O)[nH]c(=O)c2c1nc(-c1ccccn1)n2CC,inactive
3,CC(C)CN1CCN(Cc2cc3ccccc3[nH]2)CC1CCO (stereo not given),"inconclusive: 35.5 µM [inhibitor, single point]"
4,COc1ccc(C(=O)/C=C/c2ccc(N(C)C)cc2)c(OC)c1,"inconclusive: 3.55 µM [inhibitor, partial curve, poor fit]"
5,CC(=O)Nc1ccc(Sc2ccc([N+](=O)[O-])o2)cc1,"inconclusive: 3.55 µM [inhibitor, single point]"
6,CCCOC(=O)c1ccc(NC(=O)c2cc(OC)c(OC)c(OC)c2Br)cc1,"inconclusive: 3.98 µM [inhibitor, full curve, poor fit]"
7,O=C1[C@@H]2C(c3cccnc3)=NO[C@@H]2C(=O)N1c1ccc2ccccc2c1,"inconclusive: 6.31 µM [inhibitor, single point]"
8,Cc1c(C(=O)N2CCCC2)oc2c1-c1nn(CC(=O)NCc3cccc(Br)c3)cc1CC2,"inconclusive: 35.5 µM [inhibitor, single point]"
9,Cc1cc(-c2ccco2)c(C#N)c2nc3ccccc3n12,"inconclusive: 35.5 µM [inhibitor, single point]"
10,CCN(CC)S(=O)(=O)N1CCC(C(=O)NCc2ccc3c(c2)OCO3)CC1,"inconclusive: 39.8 µM [inhibitor, partial curve, poor fit]"
11,COC(=O)c1ccc(CN2CCCC(CCC(=O)NCc3ccc(C)o3)C2)cc1 (stereo not given),inactive
12,O=C(NC1CCCC1)c1c[nH]c2ccc(S(=O)(=O)Nc3cccc(C(F)(F)F)c3)cc2c1=O,inactive
13,CC(Oc1ccc(Br)cc1)c1nc2c3ccccc3nc(=S)n2[nH]1 (stereo not given),"inconclusive: 3.16 µM [inhibitor, single point]"
14,O=C(NCc1ccc(F)cc1)c1cccc2c1C(=O)c1ccc(N3CCC(Cc4ccccc4)CC3)cc1S2(=O)=O,active: 25.1 µM
15,Cc1ccc(C)c(NC(=O)C2CCCN(S(=O)(=O)c3c(C)noc3/C=C/N(C)C)C2)c1 (stereo not given),"inconclusive: 5.62 µM [inhibitor, single point]"
16,COc1ccc(CC2S/C(=N/N=C/c3ccccc3O)NC2=O)cc1 (stereo not given),"inconclusive: 5.01 µM [inhibitor, full curve, poor fit]"
17,CCOc1ccc(NC(=O)c2cn(-c3ccc(OCC)cc3)c(=O)c3cc(OC)c(OC)cc23)cc1,inactive
18,CCCCCCCOc1ccc(C(=O)Nc2cccnc2)cc1,"inconclusive: 3.16 µM [inhibitor, single point]"
19,COC(=O)/N=C/c1c(NCc2ccccc2)nc2c(C)cccn2c1=O,"inconclusive: 22.4 µM [inhibitor, single point]"
20,COc1ccc(NC(=O)Cn2c(=O)n(-c3ccccc3)c(=O)c3c4c(sc32)CCCC4)cc1,"inconclusive: 15.8 µM [inhibitor, single point]"
21,O=C(Cc1csc(-c2cccc(Cl)c2)n1)Nc1cccc(S(=O)(=O)NC2=NCCC2)c1,"inconclusive: 3.16 µM [inhibitor, single point]"
